In one series the test system is RFL29a (Rf3). Put plainly: EMSA. Particulars: 28.1 nM-1.8 uM protein; Binding buffer 1x THE (34 mM Tris, 66 mM HEPES, 0.1 mM EDTA, pH 8), 0.2 M NaCl, 5 mM DTT, 5 mg/mL heparin, 0.1 mg/mL BSA; recombinant protein; protein details: N-terminal 6xHis-MBP (pETG-41K); label: 5'-fluorescein. In general terms: Mobility shift assays separate free from complexed probe on a gel.

For the next series, the system named is RFL79 (Rf1). Put plainly: EMSA. Conditions: 28.1 nM-1.8 uM protein; Binding buffer 1x THE (34 mM Tris, 66 mM HEPES, 0.1 mM EDTA, pH 8), 0.2 M NaCl, 5 mM DTT, 5 mg/mL heparin, 0.1 mg/mL BSA; recombinant protein; protein details: N-terminal 6xHis-MBP (pETG-41K); label: 5'-fluorescein.

Construct, isoform or probe ends are uncertain for at least one entry. A negative result means that nothing was seen under these conditions.

Regarding CCACUAGCAGGUUUACUGCUUUCU [BS orf256], the binding result with RFL29a (Rf3) and with RFL79 (Rf1) was “no binding” in each case.

As for “CUGUAAAUCAAGAAUUCCUCGAAGA [BS RFL79 (orf279)]”, the binding result in the series on RFL29a (Rf3) is given as “binds”.

Regarding “CUUCACCUGUGCACUUAUUUAUGUAU [BS RFL29a (orf279)]”, the binding result with RFL79 (Rf1) is listed as “binds”.
